Test results: publication PMC6050252
No constants are given. Whether binding was seen depends on the method and setting. Binding seen in cells or lysates may run through a third protein. Some results given as binding are weak or reduced against the parent protein; the word gives no strength.

T1: CDC50A (TMEM30A), mouse, endogenous (mouse (endogenous in mouse tissues)) (UniProt Q8VEK0)
T1 sequence: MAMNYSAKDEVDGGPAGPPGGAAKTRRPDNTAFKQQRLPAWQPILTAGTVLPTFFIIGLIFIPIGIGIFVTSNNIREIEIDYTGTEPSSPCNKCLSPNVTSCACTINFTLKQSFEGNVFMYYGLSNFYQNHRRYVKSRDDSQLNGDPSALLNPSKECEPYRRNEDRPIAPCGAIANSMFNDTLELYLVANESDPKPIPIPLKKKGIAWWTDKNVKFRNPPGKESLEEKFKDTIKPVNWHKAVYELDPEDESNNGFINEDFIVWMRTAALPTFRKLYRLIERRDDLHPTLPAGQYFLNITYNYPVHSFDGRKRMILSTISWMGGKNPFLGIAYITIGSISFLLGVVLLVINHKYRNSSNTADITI

B1: ATP8A2, mouse, endogenous (protein, UniProt P98200 1-1148)
chain: MSRATSVGDQLEAPARIIYLNQSHLNKFCDNRISTAKYSVLTFLPRFLYEQIRRAANAFFLFIALLQQIPDVSPTGRYTTLVPLVIILTIAGIKEIIEDFKRHKADNAVNKKKTIVLRNGMWHTIMWKEVAVGDIVKVLNGQYLPADMVLFSSSEPQGMCYVETANLDGETNLKIRQGLSHTTDMQTRDVLMKLSGRIECEGPNRHLYDFTGNLHLDGKSSVALGPDQILLRGTQLRNTQWVFGVVVYTGHDSKLMQNSTKAPLKRSNVEKVTNVQILVLFGILLVMALVSSVGALFWNGSHGGKSWYIKKMDTNSDNFGYNLLTFIILYNNLIPISLLVTLEVVKYTQALFINWDMDMYYIENDTPAMARTSNLNEELGQVKYLFSDKTGTLTCNIMNFKKCSIAGVTYGHFPELAREQSSDDFCRMTSCTNDSCDFNDPRLLKNIEDQHPTAPCIQEFLTLLAVCHTVVPEKDGDEIIYQASSPDEAALVKGAKKLGFVFTGRTPYSVIIEAMGQEQTFGILNVLEFSSDRKRMSVIVRLPSGQLRLYCKGADNVIFERLSKDSKYMEETLCHLEYFATEGLRTLCVAYADLSENEYEEWLKVYQEASIILKDRAQRLEECYEIIEKNLLLLGATAIEDRLQAGVPETIATLLKAEIKIWVLTGDKQETAINIGYSCRLVSQNMALILLKEDSLDATRAAITQHCTDLGNLLGKENDVALIIDGHTLKYALSFEVRRSFLDLALSCKAVICCRVSPLQKSEIVDVVKKRVKAITLAIGDGANDVGMIQTAHVGVGISGNEGMQATNNSDYAIAQFSYLEKLLLVHGAWSYNRVTKCILYCFYKNVVLYIIELWFAFVNGFSGQILFERWCIGLYNVIFTALPPFTLGIFERSCTQESMLRFPQLYRITQNAEGFNTKVFWGHCINALVHSLILFWVPMKALEHDTPVTSGHATDYLFVGNIVYTYVVVTVCLKAGLETTAWTKFSHLAVWGSMLIWLVFFGVYSTIWPTIPIAPDMKGQATMVLSSAYFWLGLFLVPTACLIEDVAWRAAKHTCKKTLLEEVQELETKSRVMGKAMLRDSNGKRMNERDRLIKRLSRKTPPTLFRTGSIQQCVSHGYAFSQEEHGAVTQEEIVRAYDTTKENSRKK
B2: ATP8A1, mouse, endogenous (protein, UniProt P70704 1-1164)
chain: MPTMRRTVSEIRSRAEGYEKTDDVSEKTSLADQEEVRTIFINQPQLTKFCNNHVSTAKYNVITFLPRFLYSQFRRAANSFFLFIALLQQIPDVSPTGRYTTLVPLLFILAVAAIKEIIEDIKRHKADNAVNKKQTQVLRNGAWEIVHWEKVAVGEIVKVTNGEHLPADLLSLSSSEPQAMCYIETSNLDGETNLKIRQGLPATSDIKDIDSLMRISGRIECESPNRHLYDFVGNIRLDGHGTVPLGADQILLRGAQLRNTQWVHGIVVYTGHDTKLMQNSTSPPLKLSNVERITNVQILILFCILIAMSLVCSVGSAIWNRRHSGKDWYLHLHYGGASNFGLNFLTFIILFNNLIPISLLVTLEVVKFTQAYFINWDLDMHYEPTDTAAMARTSNLNEELGQVKYIFSDKTGTLTCNVMQFKKCTIAGVAYGHVPEPEDYGCSPDEWQSSQFGDEKTFNDPSLLDNLQNNHPTAPIICEFLTMMAVCHTAVPEREGDKIIYQAASPDEGALVRAAKQLNFVFTGRTPDSVIIDSLGQEERYELLNVLEFTSARKRMSVVVRTPSGKLRLYCKGADTVIYERLAETSKYKEITLKHLEQFATEGLRTLCFAVAEISESDFEEWRAVYHRASTSVQNRLLKLEESYELIEKNLQLLGATAIEDKLQDQVPETIETLMKADIKIWILTGDKQETAINIGHSCRLLKRNMGMIVINEGSLDGTRETLSRHCTTLGDALRKENDFALIIDGKTLKYALTFGVRQYFLDLALSCKAVICCRVSPLQKSEVVEMVKKQVKVITLAIGDGANDVSMIQTAHVGVGISGNEGLQAANSSDYSIAQFKYLKNLLMVHGAWNYNRVSKCILYCFYKNIVLYIIEIWFAFVNGFSGQILFERWCIGLYNVMFTAMPPLTLGIFERSCRKENMLKYPELYKTSQNALDFNTKVFWVHCLNGLFHSVILFWFPLKALQYGTVFGNGKTSDYLLLGNFVYTFVVITVCLKAGLETSYWTWFSHIAIWGSIALWVVFFGIYSSLWPAVPMAPDMSGEAAMLFSSGVFWVGLLSIPVASLLLDVLYKVIKRTAFKTLVDEVQELEAKSQDPGAVVLGKSLTERAQLLKNVFKKNHVNLYRSESLQQNLLHGYAFSQDENGIVSQSEVIRAYDTTKQRPDEW
B3: ATP11C, mouse, endogenous (protein, UniProt Q9QZW0 1-1129)
chain: MFRRTLNRLCAGEEKRVGTRTVFVGNHPISGTEPYIAQRFCDNRIVSSKYTLWNFLPKNLFEQFRRIANFYFLIIFLVQVTVDTPTSPVTSGLPLFFVITVTAIKQGYEDWLRHRADNEVNKSAVYIIENAKRVRKESEKIKVGDVVEVQANETFPCDLILLSSCTTDGTCYVTTASLDGESNCKTHYAVRDTIALCTAESIDNLRATIECEQPQPDLYRFVGRISIYSNSIEAVARSLGPENLLLKGATLKNTKKIYGVAVYTGMETKMALNYQGKSQKCSAVEKSINAFLIVYLFILLTKAAVCTTLKYVWQSSPYNDEPWYNQKTQKERETFQVLKMFTDFLSFMVLFNFIIPVSMYVTVEMQKFLGSFFISWDKDFFDEEINEGALVNTSDLNEELGQVDYVFTDKTGTLTENSMEFIECCIDGHKYKGTTQEVDGLSQTDGPLAYFDKADKNREALFLRALCLCHTVEMKTNDDVDGPVEGAGFTYISSSPDEIALVKGAKRFGFTFLGNQNGYIRVENQRKEIEEYELLHTLNFDSVRRRMSVIVRTQKGDILLFCKGADSSIFPRVHSHQIELTKDHVERNAMDGYRTLCVAFKEIPPDDFERINAQLVEAKMALQDREEKLEKVFDEIETNMNLIGATAVEDKLQDQAAETIEALHAAGLKVWVLTGDKMETAKSTCYACRLFQTNTELLELTTKTIEESERKEDRLHELLIEYRKKLLHEFPKSTRSLKKAWTEHQEYGLIIDGSTLSLILNSSQDCSSNNYKSIFLQICMKCTAVLCCRMAPLQKAQIVRMVKNLKGSPITLSIGDGANDVSMILESHVGIGIKGKEGRQAARNSDYSVPKFKHLKKLLLVHGHLYYVRIAHLVQYFFYKNLCFILPQFLYQFFCGFSQQPLYDAAYLTMYNICFTSLPILAYSLLEQHINIDTLTADPRLYMKITGNAMLQLGPFLHWTFLAAFEGTVFFFGTYFLFQTSSLEDNGKIYGNWTFGTIVFTVLVFTVTLKLALDTRFWTWINHFVIWGSLAFYVFFSFFWGGIIWPFLKQQRMYFVFAQMLCSVSTWLAIILLIFISLFPEILLIVVKNVRRRSARRNLSCRRASDSLSARPSVRPLLLRTFSDESNIL
B4: ATP11A, mouse, endogenous (protein, UniProt P98197 1-1187)
chain: MDCSLLRTLVRRYCAGEENWVDSRTIYVGHKEPPPGAEAYIPQRYPDNRIVSSKYTFWNFIPKNLFEQFRRIANFYFLIIFLVQLIIDTPTSPVTSGLPLFFVITVTAIKQGYEDWLRHKADNAMNQCPVHFIQHGKLVRKQSRKLRVGDIVMVKEDETFPCDLIFLSSNRADGTCHVTTASLDGESSHKTHYAVQDTKGFHTEADVDSLHATIECEQPQPDLYKFVGRINVYNDLNDPVVRPLGSENLLLRGATLKNTEKIFGVAIYTGMETKMALNYQSKSQKRSAVEKSMNTFLIVYLCILVSKALINTVLKYVWQSEPFRDEPWYNEKTESERQRNLFLRAFTDFLAFMVLFNYIIPVSMYVTVEMQKFLGSYFITWDEDMFDEEMGEGPLVNTSDLNEELGQVEYIFTDKTGTLTENNMAFKECCIEGHVYVPHVICNGQVLPDSSGIDMIDSSPGVCGREREELFFRAICLCHTVQVKDDHCGDDVDGPQKSPDAKSCVYISSSPDEVALVEGVQRLGFTYLRLKDNYMEILNRENDIERFELLEVLTFDSVRRRMSVIVKSTTGEIYLFCKGADSSIFPRVIEGKVDQVRSRVERNAVEGLRTLCVAYKRLEPEQYEDACRLLQSAKVALQDREKKLAEAYEQIEKDLVLLGATAVEDRLQEKAADTIEALQKAGIKVWVLTGDKMETASATCYACKLFRRSTQLLELTTKKLEEQSLHDVLFDLSKTVLRCSGSMTRDSFSGLSTDMHDYGLIIDGAALSLIMKPREDGSSSGNYRELFLEICRNCSAVLCCRMAPLQKAQIVKLIKFSKEHPITLAIGDGANDVSMILEAHVGIGVIGKEGRQAARNSDYAIPKFKHLKKMLLVHGHFYYIRISELVQYFFYKNVCFIFPQFLYQFFCGFSQQTLYDTAYLTLYNISFTSLPILLYSLMEQHVGIDVLKRDPTLYRDIAKNALLRWRVFIYWTFLGVFDALVFFFGAYFIFENTTVTINGQMFGNWTFGTLVFTVMVLTVTLKLALDTHYWTWINHFVIWGSLLFYIAFSLLWGGVIWPFLSYQRMYYVFISMLSSGPAWLGIILLVTVGLLPDVLKKVLCRQLWPTATERTQNIQHQDSISEFTPLASLPSWGAQGSRLLAAQCSSPSGRVVCSRWESEECPVLPLHPGLPHKARYGCCRSSLEMPT

Each binder was assayed against T1, CDC50A (TMEM30A), mouse, endogenous (mouse (endogenous in mouse tissues)) (assay: co-IP; CHAPS extracts of mouse retina, brain, kidney, testes, liver on Cdc50-7F4-Sepharose, eluted with 7F4 peptide; western blots with antibodies to ATP8A2, ATP8A1, ATP11C, ATP11A and CDC50A).
In the case of B1, the binding is reported as “binds”. With B2 the binding was “binds”. With B3 the binding was “binds”. In the case of B4, the binding is reported as “binds”.
